From the supplement of paper PMC9578143, “Small-Molecule Ebselen Binds to YTHDF Proteins Interfering with the Recognition of N^6-Methyladenosine-Modified RNAs” (ACS Pharmacology & Translational Science, 2022) come the findings set out here.

The list shows a part of the results. Plates or batches differ in their baseline, so values are only roughly comparable.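 Hits were defined as a z-score below −3.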

This assay deals with T1, YTHDF1 YTH domain (aa 365-554) (UniProt Q9BYJ9).
T1 sequence (whole entry): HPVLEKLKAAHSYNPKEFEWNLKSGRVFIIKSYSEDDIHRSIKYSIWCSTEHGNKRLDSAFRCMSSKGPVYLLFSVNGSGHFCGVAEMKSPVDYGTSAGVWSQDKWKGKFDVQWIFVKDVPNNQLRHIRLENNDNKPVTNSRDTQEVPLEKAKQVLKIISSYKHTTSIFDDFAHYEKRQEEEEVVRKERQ
Description: tryptophan fluorescence intensity z-score (mean); higher = higher fluorescence, less quenching (negative = binding / quenching). To be noted: 10 µM.
Consider `CC(C)CCC[C@@H](C)[C@H]1CC[C@H]2[C@@H]3C[C@@H](O)[C@@]4(O)C[C@@H](O)CC[C@]4(C)[C@H]3CC[C@]12C` [CHOLESTAN-3beta,5alpha,6beta-TRIOL] (plate: M 15-16), for which the “tryptophan fluorescence intensity z-score” value is inactive: 0.46.
The value for `CC(C)c1c(O)ccc2c1CCC1[C@@](C)(C=O)CCC[C@]21C` (stereo partly specified) (plate: M 13-14) was inactive: 0.652; that for `NCCc1ccc(O)c(O)c1` (plate: M 3-4) was inactive: 0.384; that for `NCCc1ccc(O)c(O)c1` (plate: M 21-22) was inactive: 0.732.
The value for `C[C@H](CS)C(=O)N1CCC[C@H]1C(=O)O` (plate: M 5-6) was inactive: -0.0741; that for `CN(Cc1cc(Br)cc(Br)c1N)C1CCCCC1` (plate: M 7-8) was inactive: -0.371.
On to `CC1(C)O[C@@H]2C[C@H]3[C@@H]4C[C@H](F)C5=CC(=O)C=C[C@]5(C)[C@H]4[C@@H](O)C[C@]3(C)[C@]2(C(=O)CO)O1` (plate: M 7-8), for which the “tryptophan fluorescence intensity z-score” value was inactive: -0.306.
In the case of `COC(=O)[C@@]1(C)CCC[C@]2(C)c3ccc(O)c(C(C)C)c3CCC12` (stereo partly specified) (plate: M 15-16), the “tryptophan fluorescence intensity z-score” value was inactive: 0.443.
The value for `CC(CN(C)C)CN1c2ccccc2CCc2ccccc21` (stereo unspecified) (plate: M 7-8) was inactive: -0.379; that for `CC(C)NCC(O)COc1cccc2[nH]ccc12` (stereo unspecified) (plate: M 5-6) was inactive: 0.186; that for `CC(C)=CCC[C@@H](C)[C@@H]1CC[C@]2(C)C3=C(CC[C@@]12C)[C@@]1(C)CC[C@H](O)C(C)(C)[C@@H]1CC3` (plate: M 15-16) was inactive: 0.494.
Regarding `CC(=O)/C(=C\c1ccccc1)CC(=O)O` (plate: M 23-24), the “tryptophan fluorescence intensity z-score” value is inactive: 0.13.
Regarding `OC(CCN1CCCC1)(c1ccccc1)C1CCCCC1` (stereo unspecified) (plate: M 5-6), the “tryptophan fluorescence intensity z-score” value is inactive: -0.137.
For `C[N+](C)(C)C[C@H](O)CC(=O)[O-]` (plate: M 11-12), the “tryptophan fluorescence intensity z-score” value is inactive: 0.0145.
Take `CC1=C(/C=C/C(C)=C/C=C/C(C)=C/C=C/C=C(C)/C=C/C=C(C)/C=C/C(=O)[C@]2(C)C[C@@H](O)CC2(C)C)C(C)(C)C[C@H](O)C1` (plate: M 21-22): the “tryptophan fluorescence intensity z-score” value is inactive: 0.106.
On to `C[C@H]1[C@H]2CC[C@H]3[C@@H]4CC=C5C[C@@H](N(C)C)CC[C@]5(C)[C@H]4CC[C@]23CN1C` (plate: M 19-20), for which the “tryptophan fluorescence intensity z-score” value was inactive: 0.555.
With `Nc1nc(N)c2nc(-c3ccccc3)c(N)nc2n1` (plate: M 5-6) the figure was inactive: 0.193; with `CC(C)=CCCC1(C)C=Cc2c(O)c3c(c(CC=C(C)C)c2O1)OC12C(=CCCC1C(C)(C)O[C@@]2(C/C=C(\C)C(=O)O)C(=O)O)C3=O` (stereo partly specified) (plate: M 15-16), inactive: -1.83; with `C=C1CC[C@H](O)C/C1=C/C=C1\CCC[C@]2(C)[C@@H]([C@H](C)/C=C/[C@H](C)C(C)C)CC[C@@H]12` (plate: M 3-4), inactive: -0.153.
For `CC(C)(C)NC(=O)[C@H]1CC[C@H]2[C@@H]3CC[C@H]4NC(=O)C=C[C@]4(C)[C@H]3CC[C@]12C` (plate: M 13-14), the “tryptophan fluorescence intensity z-score” value was inactive: 0.257.
Turning to `C=CC1=C(C)/C(=C/c2[nH]c(Cc3[nH]c(/C=C4\NC(=O)C(C)=C4C=C)c(C)c3CCC(=O)O)c(CCC(=O)O)c2C)NC1=O` (plate: M 17-18), the “tryptophan fluorescence intensity z-score” value is inactive: -0.955.
For the molecule `CC(C)(C)CC(C)(C)c1ccc(OCCOCC[N+](C)(C)Cc2ccccc2)cc1` (plate: M 1-2), the “tryptophan fluorescence intensity z-score” value was inactive: -0.345.
For `COc1ccc(CCC(=O)c2c(O)cc(O[C@@H]3O[C@H](CO)[C@@H](O)[C@H](O)[C@H]3O[C@@H]3O[C@@H](C)[C@H](O)[C@@H](O)[C@H]3O)cc2O)cc1O` (plate: M 23-24), the “tryptophan fluorescence intensity z-score” value was inactive: -0.0612.
Regarding `CCCCOc1ccc(C(=O)CCN2CCCCC2)cc1` (plate: M 3-4), the “tryptophan fluorescence intensity z-score” value is inactive: -0.156.
As to `C=C1C(=O)O[C@H]2[C@H]1CC/C(C)=C/CC[C@@]1(C)O[C@@H]21` (plate: M 19-20), the “tryptophan fluorescence intensity z-score” value is inactive: 0.218.
With `COc1cccc(O)c1O` (plate: M 21-22) the figure was inactive: 0.22.
For the molecule `COc1ccc(-c2cc(=O)c3c(OC)c(OC)c(OC)c(OC)c3o2)cc1OC` (plate: M 19-20), the “tryptophan fluorescence intensity z-score” value was inactive: -0.0303.
With `CCC[C@@H]1C[C@@H](C(=O)N[C@@H]([C@H]2O[C@H](SC)[C@H](O)[C@@H](O)[C@H]2O)[C@@H](C)O)N(C)C1` (plate: M 3-4) the figure was inactive: 0.0495; with `C=C1C(N)CC2CC1C2(C)C` (stereo not drawn) [3-AMINO-beta-PINENE] (plate: M 17-18), inactive: 0.403; with `CN1CCCN=C1/C=C/c1cccs1` (plate: M 5-6), inactive: -0.658.
In the case of `CSCCC(N)C(=O)NC(CC(C)C)C(=O)NC(Cc1ccccc1)C(=O)O` (stereo unspecified) (plate: M 23-24), the “tryptophan fluorescence intensity z-score” value was inactive: 0.367.
